# According to the supplement of paper PMC3334620:
# In all, about 33,000 sequences were measured (“E-score (-0.5 to 0.5)”: median about -0.0034, highest 2% from about 0.25 on). The list shows a part of the results.
# Molecular target: T1, Yap3 (UniProt P38749)
# T1 sequence: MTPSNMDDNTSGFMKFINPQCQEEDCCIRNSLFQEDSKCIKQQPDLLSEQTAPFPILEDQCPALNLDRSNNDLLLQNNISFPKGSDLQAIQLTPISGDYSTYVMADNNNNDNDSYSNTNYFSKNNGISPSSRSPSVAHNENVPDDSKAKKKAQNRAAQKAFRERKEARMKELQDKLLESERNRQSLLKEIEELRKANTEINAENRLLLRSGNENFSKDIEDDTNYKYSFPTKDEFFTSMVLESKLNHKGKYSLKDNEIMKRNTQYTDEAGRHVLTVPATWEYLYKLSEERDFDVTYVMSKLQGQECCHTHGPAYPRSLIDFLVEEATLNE
# Assay: PBM E-score (8-mer binding enrichment) (E-score (-0.5 to 0.5)); higher = stronger / more preferred TF binding
# Conditions: protein concentration: 100 nM; construct: GST-full length
# Description: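 Universal 'all 10-mer' protein binding microarrays (Agilent AMADID 015681) probed with GST-tagged S. cerevisiae TFs (full-length or DBD) made by in vitro transcription/translation (PURExpress), about 100-200 nM. Bound TF was detected with fluorescent anti-GST. Each ungapped 8-mer (which stands for itself and its reverse complement) is scored by the PBM enrichment score (E-score), a modified Wilcoxon-Mann-Whitney statistic from -0.5 to +0.5, computed with the Universal PBM Analysis Suite. Scale: above 0.35 generally sequence-specific binding.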
row,Sequence,PBM E-score
1,ACTGGGCG,-0.225
2,CAAGTGCC,-0.122
3,ACGTTGTA,-0.0225
4,GGGACACC,-0.243
5,GGTAATGA,0.13
6,GGCTGTAC,-0.209
7,ATCGACCC,0.0444
8,GGGCTGCA,-0.195
9,AAGGATGG,-0.0686
10,AAATGTTA,0.123
11,CAAATTAG,0.122
12,GGGTGCAC,-0.135
13,CCAGATCA,0.179
14,CCTGGAAC,-0.0541
15,ATAATACC,0.226
16,GTCTCTCA,-0.0895
17,GATGCGGA,-0.197
18,CGTCCGCC,-0.213
19,CCTGGCCA,-0.00442
20,GCTAGAAC,-0.0566
21,ATCGTCGA,-0.0348
22,AGGTCAAC,-0.0927
23,TAATAAAA,0.324
24,GCCAAAAC,-0.0294
25,CACACCCG,-0.107

row,Sequence,PBM E-score
1,CTCAGCCA,-0.0977
2,ACGATCCT,0.0248
3,AACGCTAT,0.102
4,CAGGGCCA,-0.297
5,CTGATTTC,-0.0175
6,TAGTCGCA,-0.0688
7,ACTGTCCC,0.11
8,AAGAGGGC,-0.0988
9,CGAATGCG,0.112
10,ACAGGACC,-0.0617
11,CCTCCCGC,-0.183
12,CGAGAACG,-0.0191
13,ATGTCGCG,0.0543
14,AGGGATCC,-0.28
15,AGCACGAG,-0.0257
16,GGTATCAA,0.0338
17,GAAGAACC,-0.0243
18,AATGAATT,0.214
19,ACTTGTTC,0.0206
20,GCGAGACC,-0.134
21,GCTGACCA,0.026
22,AGTCTGCG,-0.25
23,GAACGGGC,-0.164
24,CCTCCTCG,-0.192
25,GAAGCGTC,-0.136

# Some of the entries so far, with bars between the fields.
row | Sequence | PBM E-score
14 | AGGGATCC | -0.28
15 | AGCACGAG | -0.0257
16 | GGTATCAA | 0.0338
17 | GAAGAACC | -0.0243

# Following part

row,Sequence,PBM E-score
1,CAGGTACC,-0.141
2,AGACCGAT,-0.131
3,AGCATCCC,-0.174
4,CACATGGG,-0.0299
5,GTTGGGGA,-0.168
6,AGTGGGTA,0.0821
7,TCTCCGCA,-0.189
8,TATGGGAA,0.0612
9,AAAAACGA,0.256
10,ACTACAAC,0.182
11,CACGCAGA,-0.0244
12,GTATGAGA,0.158
13,CATGCGGC,0.00023
14,ATAGCAAA,0.0477
15,GCAAGCCC,-0.0469
16,CCAAGCGA,0.0232
17,AAGCGCGG,-0.00666
18,ATGAGGAA,0.122
19,CAAGTTGG,0.106
20,ATCCCATA,-0.106
21,CCCGACAC,-0.222
22,ATACTGCG,-0.0971
23,AGTCACAA,0.208
24,CATGGTCC,-0.102
25,ATTGTCGG,0.0578

row,Sequence,PBM E-score
1,AACCTTTC,0.0269
2,GCGTGAGA,0.0548
3,ATTTTTGC,0.123
4,CTAGAGCC,-0.212
5,CCACAACC,0.0507
6,AACCAGCA,-0.021
7,AAGAGAGT,0.0295
8,CGGAAAAG,0.0315
9,CAAGATAG,-0.0364
10,GGTACAGA,-0.0117
11,GATGCATA,-0.00781
12,ACTGGTGA,-0.0583
13,CCCCCCCA,-0.394
14,CCTTAATA,0.042
15,CACTCTCC,-0.021
16,GACCGCGA,-0.171
17,CCACTCAC,0.0262
18,GCGATTAC,0.0199
19,CATCCTGC,-0.0711
20,GCTAGAAA,0.193
21,CCAGACCA,-0.0634
22,CTCACACA,-0.00237
23,GAATGTCA,-0.0215
24,AGAATTAC,0.195
25,AAGAATTG,0.171

# Quoted at random: three entries already listed.
row,Sequence,PBM E-score
4,CTAGAGCC,-0.212
22,CTCACACA,-0.00237
23,GAATGTCA,-0.0215

# Remaining list, next part

row,Sequence,PBM E-score
1,GATGCGCC,0.0212
2,CAACTGGA,-0.097
3,TGAGCCAA,0.0518
4,GACACACC,0.155
5,CTATGCAC,-0.0447
6,ACGCTAGC,-0.251
7,ATGGGAGC,0.00648
8,TAGCCATA,-0.0876
9,ATCTCCCC,-0.205
10,AGTGCATA,-0.0677
11,ATGGGTCA,-0.0716
12,ACAAATTA,0.242
13,CGTTCTCA,-0.0074
14,CCCTTAGA,-0.0783
15,AATGTGTC,0.107
16,CCATCCCA,-0.131
17,TGACACAA,0.153
18,CAGAGAGC,-0.176
19,AACGGGCC,-0.145
20,ACTACGCA,-0.0192
21,CAACCATC,-0.0758
22,GGTTCGAC,0.00247
23,ACAGATTC,0.102
24,GCACCGCA,-0.148
25,AAAGAGTC,-0.136

row,Sequence,PBM E-score
1,AAGTGTCT,-0.0317
2,ATTTACAG,0.148
3,GCCGCCCC,-0.152
4,AAGGAATT,0.0383
5,ACTGCAGC,-0.0363
6,ATCGGCAA,-0.0735
7,ACCGCCAC,-0.122
8,GTACATAA,0.135
9,TGTCGACA,-0.033
10,AGGTGAAG,0.0344
11,ACCCTGGG,-0.302
12,AAACTCGG,0.0843
13,ACCTCCTG,-0.0595
14,CATCAGCC,-0.0344
15,AACGCGGG,0.0467
16,AATGAAAC,0.235
17,CACCGAGG,-0.178
18,GATCAAGA,-0.0818
19,GGACTGGA,-0.217
20,AGGCTATA,-0.0558
21,CATGATCA,0.0976
22,TAAGAGTA,0.0949
23,CCAGAGGC,-0.131
24,CTGCATTA,-0.0676
25,CGACGCCC,-0.0838

row,Sequence,PBM E-score
1,CCGCTTAA,0.0874
2,ACCTGGGG,-0.308
3,GCGATCCA,-0.00197
4,AGACGCCA,-0.129
5,TACCTTCA,0.0161
6,CCAGCCAG,-0.213
7,AGATATTA,0.162
8,GTGGAGTA,0.0683
9,ACGTCTCG,-0.1
10,CATTAATA,0.193
11,GCATAGAA,0.0775
12,CAAGCGAG,0.144
13,CATCCCCA,-0.12
14,AATAGAGA,0.0381
15,ACGAACGG,0.138
16,CCGCGCGC,0.0469
17,ACCCAGTA,-0.0533
18,AACCGTGG,-0.172
19,ATCTCTTA,0.0654
20,GGTAGACA,0.018
21,CTGCTGCC,-0.169
22,AAGCAGCT,-0.0325
